# Assay results from PubChem BioAssay (NCATS).
# By UniProt entry, the sequences of proteins in these tests, tags left out. Residues count along the entry.
# UniProt Q8JUX6, 220-798 limits assumed: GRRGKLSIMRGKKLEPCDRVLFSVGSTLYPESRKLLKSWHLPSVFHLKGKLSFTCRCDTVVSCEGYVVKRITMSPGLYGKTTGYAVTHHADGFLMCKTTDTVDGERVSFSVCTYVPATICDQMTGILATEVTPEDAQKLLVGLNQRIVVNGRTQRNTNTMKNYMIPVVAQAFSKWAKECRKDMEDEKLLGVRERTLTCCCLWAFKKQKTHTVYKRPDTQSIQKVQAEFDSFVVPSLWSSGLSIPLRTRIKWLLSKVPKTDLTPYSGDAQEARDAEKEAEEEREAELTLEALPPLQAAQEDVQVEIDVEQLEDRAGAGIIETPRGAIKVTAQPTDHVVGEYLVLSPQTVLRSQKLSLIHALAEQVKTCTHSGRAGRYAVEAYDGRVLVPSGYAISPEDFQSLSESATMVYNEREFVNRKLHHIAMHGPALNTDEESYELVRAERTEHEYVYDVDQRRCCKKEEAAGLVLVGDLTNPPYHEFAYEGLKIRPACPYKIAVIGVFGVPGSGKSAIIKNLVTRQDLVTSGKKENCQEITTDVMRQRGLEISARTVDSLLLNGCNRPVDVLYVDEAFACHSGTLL
# Inconclusive results, whose numbers are uncertain, are shown with a selection of clear calls. Potencies of inconclusive entries are doubtful fits and often do not repeat. The source made the active and inactive calls. The call rests on the fitted dose curve.
# Biological target: Polyprotein P1234 (Chikungunya virus (strain S27-African prototype)) (UniProt Q8JUX6)
# Assay: Secondary cell base assay for inhibitors of NSP2Pro Chikungunya virus (CHIKV) (AID 1964100); further: nearly all actives have a fitted effect of over 70% in size
# Settings: cell-based CHIKV nsP2 protease reporter assay; series mostly up to 51.1 µM; activity change, negative = inhibition: at the top concentration
# Source text: PI: Natalia J. Martinez Ph.D.
# National Center for Advancing Translational Sciences (NCATS),
# National Institute of Health (NIH), Rockville, Maryland
# Chikungunya virus (CHIKV) is a mosquito-borne RNA virus that has emerged as one of the most important global arboviral threats in the last decade. Although the first CHIKV vaccine has recently been FDA approved for use in healthy adults at increased risk, to date, there are no available antiviral drugs for CHIKV infection. CHIKV nsP2 protease plays a crucial role in the processing of the viral polypeptide precursor to release enzymes required for viral replication, thus making it a promising drug target for antiviral discovery. Here, we established a high-throughput pipeline to identify small molecule inhibitors of nsP2 proteolytic activity. The pipeline is composed of a suite of 1,536-well in vitro assays to support quantitative high-throughput (qHTS) screening campaigns. Specifically, we developed a fluorescence resonance energy transfer (FRET)-based assay using a fluorogenic peptide substrate encompassing an endogenous cleavage site and purified recombinant protease domain (nsP2pro). Using this assay, we interrogated ~37,000 small molecules, including those in drug repurposing libraries as well as chemically diverse and medicinal chemistry-friendly compounds. Hits were selected for follow-up validation against full-length nsP2 and an additional peptide. FRET-based 1,536-well assays for papain, hepatitis C virus NS3-4A, and human furin proteases were implemented to characterize compound selectivity. […] Novel compounds were identified to be potential nsP2 inhibitors and molecular docking analyses were performed to explain the binding mode of selected hits. In vitro antiviral activity was evaluated for a subset of compounds using a high-throughput CHIKV infection assay. To our knowledge, the pipeline presented here is unprecedented for CHIKV antiviral discovery research.
# Described herein is the secondary cell-based assay using a reporter construct. Construct cloning was produced by gene synthesis (GeneScript). The Split Nluc reporter construct was cloned into the NheI/EcoRI sites of pcDNA3.1 (+). The Nterm HiBiT (86b) and Cterm LgBiT (11S) sequences of the Split Nluc reporter were separated by a flexible loop containing the nsp3/4 cleavage site ([…]) or a flexible loop without a cleavage site (12X GlySer). nsP2pro expression construct (amino acids 220-798, accession #MT933050) was cloned into the NheI/EcoRI sites of pcDNA3.1 (+) and contained a C-terminal Flag/6xHis tag. The gene synthesis of the Split Nluc reporter and West Nile Virus (WNV) NS2B/NS3 protease expression constructs was performed by Synbio Technologies. The Split Nluc reporter construct included the N-terminal HiBiT (86b) and C-terminal LgBiT (11S) sequences, separated by a loop containing the WNV NS2B/NS3 cleavage site ([…]). The WNV NS2B/NS3 protease expression construct (amino acids 1375-1693, accession #NC_009942) contained a C-terminal Flag/6xHis tag. Both constructs were cloned into the XbaI/AgeI sites of pcDNA3.4.
# PROTOCOL TABLE (as described by Inglese J, Shamu CE and Guy RK. 2007)
# SEQUENCE No. (e.g., 1, 2, 3, etc.); […] (e.g., Cells, Incubation, Reagent, etc.); VALUE; DESCRIPTION.
# 1a; Cell Transfection; Lipofectamine 2000.
# 1b; Cell; 4 uL; Aurora 1536-well, white, tissue culture plate.
# 2; Incubation; 4 hr; 37C, 5% CO2, 95% humidity.
# 3; Compound; 20 nL; Echo 650 Liquid Handler.
# 4; Incubation; overnight; 37C, 55 CO2, 95% humidity.
# 5; Reagent; 4 uL; Nano-Glo Luciferase assay system.
# 6; Centrifugation; 2 sec.
# 7; Detection; Luminescence; ViewLux plate reader (PerkinElmer).
# NOTES (numbers refer to sequence numbers above).
# 1a. […]
# On the % scale 0 is the no-effect control and ±100 the full control effect; potency means the concentration at half of the fitted maximal effect.
SMILES,"activity change, negative = inhibition",Potency
Nc1c(-c2ccccc2)nc(Cl)c2c(O)n[nH]c(=O)c12,inactive: -1.75%,
O=C(Nc1cccs1)NC1CCN(c2ccc(C(F)(F)F)cn2)C1 (stereo not given),,"inconclusive: 18.3 µM [inhibitor, partial curve, poor fit]"
Oc1c(Br)cc(Br)cc1CNC1CCC(O)CC1 (stereo not given),inactive: -6.83%,
C=C1C(=O)O[C@@H]2[C@H]1[C@H](O)C[C@]1(C)[C@@H](O)CC=C(C)[C@@H]21,,"inconclusive: 8.19 µM [inhibitor, full curve]"
Cc1ccc(S(=O)(=O)c2ccc([N+](=O)[O-])cn2)cc1,,active: 2.06 µM
CC(C)c1ccc(S(=O)(=O)c2cnc(SCC(=O)Nc3ccc4c(c3)OCCO4)[nH]c2=O)cc1,,"inconclusive: 16.3 µM [inhibitor, partial curve]"
O=c1c(NS(=O)(=O)Cc2ccccc2)ccc2n1C[C@H]1C[C@@H]2CN(S(=O)(=O)c2ccccc2)C1,inactive: 5.63%,
CCN1CCN(c2ncc3c(n2)CCN(Cc2sccc2C)C3)CC1,,"inconclusive: 16.3 µM [inhibitor, partial curve, poor fit]"
Oc1cccc(-c2c3nc(c(-c4cccc(O)c4)c4ccc([nH]4)c(-c4cccc(O)c4)c4nc(c(-c5cccc(O)c5)c5ccc2[nH]5)CC4)C=C3)c1,inactive: 1.51%,
COC(=O)C1=C(C)NC(C)=C(C(=O)OCC(C)C)C1c1ccccc1[N+](=O)[O-] (stereo not given),,"inconclusive: 29.1 µM [inhibitor, partial curve, poor fit]"
Cc1ccsc1[C@@H]1CCN(Cc2ccc(-c3ccn[nH]3)o2)C[C@H]1O,,"inconclusive: 23.1 µM [inhibitor, single point]"
CN1CCN(c2ncc3c(n2)CCN(Cc2ccc(Br)s2)C3)CC1,,"inconclusive: 0.651 µM [inhibitor, full curve, poor fit]"
Cc1ccc(S(=O)(=O)Nc2cc(Cl)c(O)c3ccccc23)c(C)c1,,active: 6.51 µM
C=CCC/C=C/C#CCCCCCCCC[C@H]1C(=O)O[C@H](C)[C@@H]1O,,"inconclusive: 25.4 µM [inhibitor, partial curve, poor fit]"
CCOC(=O)c1cccc(CNc2ccc(N(C)C(=O)Nc3ccccc3)cc2)c1,,"inconclusive: 18.3 µM [inhibitor, partial curve, poor fit]"
CC(O)c1ccc(-c2ccc3ncnc(NCc4nccs4)c3c2)o1 (stereo not given),,"inconclusive: 16.3 µM [inhibitor, partial curve]"
CCOc1ccc(-c2noc(CNC(=O)c3cc(-c4ccco4)[nH]n3)n2)cn1,,"inconclusive: 5.8 µM [inhibitor, full curve]"
CC1CC2(O)OC(=O)C3=C2C(CCC3)[C@@]12C[C@@H](c1ccoc1)OC2=O (stereo not given in full),inactive: -5.83% [at 33.5 µM],
CCOC(=O)c1c2c3c(cccc3[nH]c1=O)C(=O)c1ccccc1-2,inactive: 6.02%,
O=C(Nc1cnc(N2CCN(c3ccccc3)CC2)c(C(=O)O)c1)c1cccs1,inactive: -0.532%,

# A stretch of the results above:
SMILES,"activity change, negative = inhibition",Potency
C=C1C(=O)O[C@@H]2[C@H]1[C@H](O)C[C@]1(C)[C@@H](O)CC=C(C)[C@@H]21,,"inconclusive: 8.19 µM [inhibitor, full curve]"
Cc1ccc(S(=O)(=O)c2ccc([N+](=O)[O-])cn2)cc1,,active: 2.06 µM

# Continued.

SMILES,"activity change, negative = inhibition",Potency
COc1ccc(N2CCN(C(c3ccccc3)c3nnc(-c4ccccc4Cl)o3)CC2)cc1 (stereo not given),,"inconclusive: 20.6 µM [inhibitor, partial curve]"
N#Cc1ccc(-c2ccc(C3Nc4ccccc4C(=O)N3O)o2)cc1 (stereo not given),,active: 23.1 µM
CCOc1ccc(CNC(=O)COc2cc(=O)n(C)c3ccccc23)cc1,inactive: 2.34%,
CCOC(=O)Nc1ccc(NCc2c(C)cc(C)cc2C)cc1N,,"inconclusive: 23.1 µM [inhibitor, partial curve]"
CCCCCCCCCCCCCCCCCC(=O)O,inactive: 5.27%,
N#Cc1ccc(-c2ccc(CNc3ccc(N4CCC(C#N)CC4)cc3)o2)cc1,,"inconclusive: 23.1 µM [inhibitor, single point]"
O=C1c2ccccc2-c2nc3nnnn3nc21 (tested in a mixture with another compound),,"inconclusive: 0.291 µM [inhibitor, full curve]"
CC(C)Nc1cccnc1N1CCN(C(=O)c2cc3cc(NS(C)(=O)=O)ccc3[nH]2)CC1,inactive: -1.23%,
CC1CCN(c2ccc(NC(=O)c3cccc(Cl)c3)cc2C(=O)O)CC1,,"inconclusive: 1.46 µM [inhibitor, single point]"
COC(=O)c1c(NC(=O)C(C)N2C(=O)c3ccccc3C2=O)sc2c1C(C(=O)OC)CC2 (stereo not given),,"inconclusive: 18.3 µM [inhibitor, partial curve, poor fit]"
NS(=O)(=O)C#Cc1ccccc1,,"inconclusive: 23.1 µM [inhibitor, single point]"
CC1=C(O)C(=O)C=C2C1=CC=C1[C@@]2(C)CC[C@@]2(C)[C@@H]3C[C@](C)(C(=O)O)CC[C@]3(C)CC[C@]12C,,"inconclusive: 0.0919 µM [inhibitor, full curve]"
CCN(CC)CCNc1ccc(CO)c2sc3ccccc3c(=O)c12,,"inconclusive: 36.6 µM [inhibitor, partial curve, poor fit]"
O=C(COc1ccccc1)N1C[C@@H]2C[C@H](C1)c1c(NS(=O)(=O)c3ccccc3)ccc(=O)n1C2,inactive: 4.01%,
N#Cc1ccc(-c2ccc(CNc3ccc(N4CCCCC4)cc3)o2)cc1,,"inconclusive: 14.6 µM [inhibitor, single point]"
COC(=O)[C@]12CCC(C)(C)C[C@H]1[C@H]1C(=O)C=C3[C@@]4(C)C=C(C#N)C(=O)C(C)(C)[C@@H]4CC[C@@]3(C)[C@]1(C)CC2,,"inconclusive: 8.19 µM [inhibitor, full curve]"
CC(C)=CCCC1(C)C=Cc2c(O)c3c(c(CC=C(C)C)c2O1)OC12C(=CC4CC1C(C)(C)OC2(C/C=C(/C)C(=O)O)C4=O)C3=O (stereo not given),,"inconclusive: 6.51 µM [inhibitor, full curve]"
CCN1Cc2ccccc2NC(=O)C12CCNC2 (stereo not given),,"inconclusive: 22.8 µM [inhibitor, partial curve]"
Cc1cc(C)nc(NC(=S)N2CCN(c3ccc4nsnc4c3)CC2)c1,,active: 16.3 µM
Cc1c(-c2cnccn2)ssc1=S,,"inconclusive: 36.6 µM [inhibitor, partial curve, poor fit]"
